According to PubChem BioAssay AID1259415 (National Center for Advancing Translational Sciences (NCATS), 2018):
Out of some 410,000 compounds screened, about 18,000 (4.4%) were called active. Inconclusive means that the source gave no clear call. Such entries were picked first, then a sample of the others. Rule as the data show it: active = activity change below about -60%; inconclusive = no clear call, values can overlap the other calls; inactive = above about -39%.

Experiment: qHTS Assay for inhibitors of the human cytomegalovirus (HCMV)
Conditions: HFF cells, HCMV-luciferase reporter, 72 h; at 57.5 µM; active compounds read low
In short: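 Two compound doses tested in HFFs infected with HCMV-luciferase, MOI 1 PFU/cell, 72 h at 37C. Lysate luminescence read with OneGlo; data normalized against buffer-only and 10uM Salinomycin inhibitor controls.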
% is scaled to controls: 0 for no effect and ±100 for the full control effect.

Row | Compound | activity change, negative = inhibition
1 | COc1ccc2c(c1)CCc1sc(NC(=O)c3ccc(Cl)cc3)nc1-2 | inconclusive: -46.7%
2 | Cc1ccc(-n2c(-c3ccncc3)n[nH]c2=S)c(C)c1 | inactive: -33.5%
3 | COc1cc(C(=O)NC(=S)N2C[C@H]3C[C@H](C2)c2cccc(=O)n2C3)cc(OC)c1OC | inactive: 24.2%
4 | O=C(O)CCCN1C(=O)/C(=C\c2ccccc2OCc2ccccc2)SC1=S | inconclusive: -41.3%
5 | CN1CCN(CC(O)COCCOc2ccc(Br)cc2)CC1 (centres undefined) | inconclusive: -56.1%
6 | O=C(O)c1cc(-c2ccccc2Cl)n(-c2ccc(F)cc2)n1 | inconclusive: -54%
7 | COc1ccc(CNc2nc(S(=O)(=O)c3ccccc3)c(Cl)s2)cc1OC | active: -94.6%
8 | COC(=O)c1oc(-c2ccc(Cl)cc2)nc1C | inconclusive: -52.2%
9 | CC(C)(C)c1ccc(NC(=O)C(=O)C2C(=O)Nc3ccccc32)cc1 (centres undefined) | inactive: 27.7%
10 | CCOC(=O)C1=C(C)N(C[C@@H]2CC[C@@H](Cc3ccc(-c4ccccc4)cc3)O2)C(=O)NC1C1CC1 (some centres undefined) | inactive: -19.7%
11 | CC(CCCC(C)(C)O)NC(=O)c1cc(COc2ccc3ncccc3c2)on1 (centres undefined) | active: -87.5%
12 | Cc1ccc(NC(=S)N2CCN(Cc3ccc4c(c3)OCO4)CC2)c(C)c1 | inconclusive: -47.4%
13 | Cc1nc2cc(-c3ccc(Cl)cc3)nn2c(C)c1CCC(=O)N1CCC2(CC1)OCCO2 | inconclusive: -43.3%
14 | CCCCC(CC)CNC(=O)C1CCCN(S(=O)(=O)c2cnc[nH]2)C1 (centres undefined) | inconclusive: -40.8%
15 | COc1ccc(NC(=O)c2cccnc2)c([N+](=O)[O-])c1 | inconclusive: -54.4%
16 | CCc1ccc(OCC(=O)N(Cc2ccc(C)cc2)Cc2ccco2)cc1 | inactive: 23.5%
17 | COc1ccc(C(C[N+](=O)[O-])c2c(-c3ccccc3)cc3ccccn23)cc1OC (centres undefined) | inconclusive: -57%
18 | Cc1ccc2c(C)nc(Nc3nc(CSc4nnc(C)s4)cc(=O)[nH]3)nc2c1 | active: -98.5%
19 | COc1ccc(C2=NN(c3nc(C)cc(C)n3)C(=O)C2)cc1 | inconclusive: -44.8%
20 | CC1CC1c1ccc(/C=C(\C#N)C(=O)Nc2cccc(Cl)c2Cl)o1 (centres undefined) | inconclusive: -44.6%
21 | COc1ccccc1-c1c(C)nn2c(-c3ccccc3)cc(C)nc12 | active: -68.1%
22 | COc1ccccc1OCc1ccc(C(=O)NCC(C)C)o1 | inconclusive: -58.8%
23 | Nc1nc2c3ccccc3nc(C3CC3)n2n1 | inactive: -7.87%
24 | O=C(N=C1c2ccccc2CN1c1ccc(F)c(F)c1)c1cccnc1 | inconclusive: -55.1%

Gathered by group: the entries above containing a COOH group.
Row | Compound | activity change, negative = inhibition
4 | O=C(O)CCCN1C(=O)/C(=C\c2ccccc2OCc2ccccc2)SC1=S | inconclusive: -41.3%
6 | O=C(O)c1cc(-c2ccccc2Cl)n(-c2ccc(F)cc2)n1 | inconclusive: -54%
